The assay addresses FBXW11 (UniProt Q9UKB1). In words: affinity purification with mass spectrometry; LC-MS/MS of proteins found with FBXW11; how FBXW11 was isolated and from which cells is not told.

Protein sequences, listed by entry. Tags and fused reporters are not part of them.
UniProt Q9UKB1: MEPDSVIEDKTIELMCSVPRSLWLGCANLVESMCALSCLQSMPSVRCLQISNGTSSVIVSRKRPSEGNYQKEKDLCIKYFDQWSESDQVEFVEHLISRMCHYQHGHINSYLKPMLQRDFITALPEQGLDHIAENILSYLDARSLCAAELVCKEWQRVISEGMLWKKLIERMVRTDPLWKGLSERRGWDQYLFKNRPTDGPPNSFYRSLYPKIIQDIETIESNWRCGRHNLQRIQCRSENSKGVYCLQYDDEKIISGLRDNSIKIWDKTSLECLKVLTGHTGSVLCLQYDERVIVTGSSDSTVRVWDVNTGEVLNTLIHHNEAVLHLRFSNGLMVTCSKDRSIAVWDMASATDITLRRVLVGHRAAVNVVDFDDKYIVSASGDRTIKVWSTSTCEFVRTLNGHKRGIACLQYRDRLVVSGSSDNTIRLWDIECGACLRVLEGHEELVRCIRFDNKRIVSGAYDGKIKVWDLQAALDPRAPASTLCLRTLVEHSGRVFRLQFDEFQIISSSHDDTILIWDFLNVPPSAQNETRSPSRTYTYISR

Here are results for one molecule from publication PMC11129471.

Results are given in words; binding and its absence hold for the method and conditions named. Binding seen in cells or lysates may run through a third protein. Here binding means that the protein was enriched with, or labelled near, the bait; the list need not be complete.

B1: TAK1 (protein, UniProt O43318 1-606)
chain: MSTASAASSSSSSSAGEMIEAPSQVLNFEEIDYKEIEVEEVVGRGAFGVVCKAKWRAKDVAIKQIESESERKAFIVELRQLSRVNHPNIVKLYGACLNPVCLVMEYAEGGSLYNVLHGAEPLPYYTAAHAMSWCLQCSQGVAYLHSMQPKALIHRDLKPPNLLLVAGGTVLKICDFGTACDIQTHMTNNKGSAAWMAPEVFEGSNYSEKCDVFSWGIILWEVITRRKPFDEIGGPAFRIMWAVHNGTRPPLIKNLPKPIESLMTRCWSKDPSQRPSMEEIVKIMTHLMRYFPGADEPLQYPCQYSDEGQSNSATSTGSFMDIASTNTSNKSDTNMEQVPATNDTIKRLESKLLKNQAKQQSESGRLSLGASRGSSVESLPPTSEGKRMSADMSEIEARIAATTAYSKPKRGHRKTASFGNILDVPEIVISGNGQPRRRSIQDLTVTGTEPGQVSSRSSSPSVRMITTSGPTSEKPTRSHPWTPDDSTDTNGSDNSIPMAYLTLDHQLQPLAPCPNSKESMAVFEQHCKMAQEYMKVQTEIALLLQRKQELVAELDQDEKDQQNTSRLVQEHKKLLDENKSLSTYYQQCKKQLEVIRSQQQKRQGTS
Consider B1, for which the binding entry is listed as “binds”.
